# Experimental data as given in paper PMC12431657, “Discovery and mechanistic insights of dibenzoylmethane as a broad spectrum inhibitor of coronavirus” (PLOS Pathogens, 2025).
# Structures can show the parent of a compound that is named as a salt. Where two headings read alike, the source gives them in different places. Hit rate of the full screen: of about 3,300 compounds, about 60 (2%) showed an effect of 50% or more. The list shows a part of the results.
# Test system: HCoV-OC43
# Design: species or system RD; HTS, protection from HCoV-OC43 induced cell death, luminescent cell viability (CellCounting-Lite 2.0), inhibition rate
# Conditions: 24 h post infection, 1 h compound pre-incubation, 10 µM, inhibitor
SMILES,OC43 Inhibition rate [%],"OC43 Inhibition rate (OC43 Inhibition rate, 24 h) [%]"
C=CCc1cc(OC)c(O[C@@H](C)[C@H](O)c2ccc(O)c(OC)c2)c(OC)c1 [Myrislignan],0,–
O=C(O)CCc1ccc(O)c(O)c1 [Dihydrocaffeic acid],-1,–
CCCCCCCCCCCC(=O)OC [Methyl laurate],0.1,–
CC(CC(=O)O)CC(=O)O [3-Methylglutaric acid],0.7,–
COc1cc(O)c2c(=O)c3c(O[C@@H]4O[C@H](CO)[C@@H](O)[C@H](O)[C@H]4O)ccc(O)c3oc2c1 [Swertianolin],-0.3,–
N[C@H]1[C@H](O[C@H]2[C@H](O)[C@@H](N)C(O)O[C@@H]2CO)O[C@H](CO)[C@@H](O)[C@@H]1O (stereo partly shown) [Chitobiose (dihydrochloride)],0.1,–
COc1cc2c(cc1OC)[C@@H]1Cc3ccc(OC)c(OC)c3C[N@@+]1([O-])CC2 [(-)-Corynoxidine],0.9,–
Cn1cc(C(N)=O)ccc1=O [Nudifloramide],2.9,–
O=C(O)/C=C/c1ccccc1 [trans-Cinnamic acid],–,-0.5
O=c1ccc2cc(O)ccc2o1 [6-Hydroxycoumarin],0.2,–
O=C(O)c1ccccc1 [Benzoic acid],-0.2,–
O=C(O)c1cccnc1C(=O)O [Quinolinic acid],-0.2,–
CCOCc1ccccc1 [(Ethoxymethyl)benzene],-2.3,–
"O=C(O)c1ccc(C(=O)O)o1 [2,5-Furandicarboxylic acid]",1.7,–
O=c1c2cc(O)c(O)cc2oc2c([C@@H]3O[C@H](CO)[C@@H](O)[C@H](O)[C@H]3O)c(O)cc(O)c12 [Isomangiferin],3.6,–
COc1ccc2cc3[n+](cc2c1OC)CCc1cc2c(cc1-3)OCO2 [Berberine (chloride)],–,-0.3
CO[C@H]1[C@H](O)[C@@H](O)[C@@H](O)[C@H](O)[C@@H]1O [D-Pinitol],-0.3,–
"Cc1cc(C)c(O)c(C)c1 [2,4,6-Trimethylphenol]",0.8,–
O=c1cc(-c2ccc(O)cc2)oc2cc(O)c(O)c(O)c12 [Scutellarein],1,–
Oc1ccc([C@H]2Oc3cc(O)cc(O)c3C[C@@H]2O)cc1 [(+)-Afzelechin],4.5,–
O=C(O)[C@@H]1CCCCN1 [L-Pipecolic acid],6.6,–
O=C[C@H](O)[C@@H](O)[C@H](O)[C@H](O)COP(=O)(O)O [D-Glucose 6-phosphate (disodium salt)],4.5,–
C=C(CCC(C(=O)O)[C@H]1[C@H](O)C[C@@]2(C)C3=CC[C@H]4C(C)(C)[C@@H](OC(C)=O)CC[C@]4(C)C3=CC[C@]12C)C(C)C (stereo partly shown) [Dehydropachymic acid],4.1,–

SMILES,OC43 Inhibition rate [%],"OC43 Inhibition rate (OC43 Inhibition rate, 24 h) [%]"
NCCc1c[nH]cn1 [Histamine (phosphate)],–,-6.6
O=C(O)CC(O)CC(=O)O [3-Hydroxyglutaric acid],0.4,–
CC1=C(C/C=C(\C)CCC[C@H](C)CCC[C@H](C)CCCC(C)C)C(=O)c2ccccc2C1=O [Vitamin K1],8.3,–
O=C1CCc2ccccc2O1 [Dihydrocoumarin],-0.6,–
CCOC(=O)CC(=O)O [3-Ethoxy-3-oxopropanoic acid],-0.2,–
O=C(/C=C/c1ccccc1)c1ccccc1 [trans-Chalcone],–,39.6
C[N+](C)(C)CCOP(=O)([O-])OC[C@H](O)CO [sn-Glycero-3-phosphocholine],0,–
CC1=CC(=O)[C@@H]2C[C@H]1C2(C)C [Verbenone],-0.2,–
O=c1ccn([C@@H]2O[C@H](COP(=O)(O)O)[C@@H](O)[C@H]2O)c(=O)[nH]1 [Uridine 5'-monophosphate disodium salt],–,-4.9
"O=C1O[C@H]([C@@H](O)CO)[C@H](O)[C@@H]1O [L-Gulono-1,4-lactone]",-0.9,–
COc1ccc(-c2coc3cc(O)c(OC)c(O)c3c2=O)cc1O [Iristectorigenin A],0.2,–
COc1cc(/C=C/C(=O)O)ccc1O [Ferulic acid],–,1.4
CC(C)=CCC[C@@](C)(O)[C@H]1CC[C@]2(C)[C@@H]1[C@H](O)C[C@@H]1[C@@]3(C)CC[C@H](O[C@@H]4O[C@H](CO)[C@@H](O)[C@H](O)[C@H]4O[C@@H]4O[C@H](CO)[C@@H](O)[C@H](O)[C@H]4O[C@@H]4OC[C@@H](O)[C@H](O)[C@H]4O)C(C)(C)[C@@H]3CC[C@]12C [Notoginsenoside Ft1],0,–
OC[C@H]1O[C@@H](Oc2cc(O)cc(/C=C/c3ccc(O)c(O)c3)c2)[C@H](O)[C@@H](O)[C@@H]1O [Astringin],-0.2,–
"COC1=CC(=O)C=C(OC)C1=O [2,6-Dimethoxy-1,4-benzoquinone]",0.1,–
N[C@H]1C(O)O[C@H](CO)[C@@H](O)[C@@H]1O (stereo partly shown) [Glucosamine (hydrochloride)],–,0.9
COC(=O)c1ccco1 [Methyl 2-furoate],-0.3,–
COc1cc2oc(=O)ccc2cc1O [Isoscopoletin],0.7,–
Cc1cc(O)c2c(c1)C(=O)c1cc(O)cc(O[C@@H]3O[C@H](CO)[C@@H](O)[C@H](O)[C@H]3O)c1C2=O [Emodin-8-glucoside],-0.1,–
CC1(C)[C@@H](O[C@H]2O[C@H](C(=O)O)[C@@H](O)[C@H](O)[C@H]2O[C@@H]2O[C@H](C(=O)O)[C@@H](O)[C@H](O)[C@H]2O)CC[C@]2(C)[C@H]3C(=O)C=C4[C@@H]5C[C@@](C)(C(=O)O)CC[C@]5(C)CC[C@@]4(C)[C@]3(C)CC[C@@H]12 [Dipotassium glycyrrhizinate],–,5.1
CCCCCCCCCCCCC/C=C/[C@@H](O)[C@@H](N)COP(=O)(O)O [Sphingosine-1-phosphate],-1.2,–
C[C@H](CC[C@@H](O[C@@H]1O[C@H](CO[C@@H]2O[C@H](CO)[C@@H](O)[C@H](O)[C@H]2O)[C@@H](O)[C@H](O)[C@H]1O[C@@H]1O[C@H](CO)[C@@H](O)[C@H](O)[C@H]1O)C(C)(C)O)[C@H]1CC[C@@]2(C)[C@@H]3CC=C4[C@@H](CC[C@H](O[C@@H]5O[C@H](CO)[C@@H](O)[C@H](O)[C@H]5O)C4(C)C)[C@]3(C)[C@H](O)C[C@]12C [Siamenoside I],-0.1,–
"Cc1ccn(C)n1 [1,3-Dimethylpyrazole]",-0.1,–

SMILES,OC43 Inhibition rate [%],"OC43 Inhibition rate (OC43 Inhibition rate, 24 h) [%]"
CC(C)=CCC[C@](C)(O)[C@@H]1CC=C(C)CC1 [alpha-Bisabolol],–,-0.2
Nc1ncnc2c1ncn2[C@@H]1C[C@H](CO)[C@@H](O)[C@H]1O [Aristeromycin],53.9,–
C[C@@H]1CC[C@]2(C(=O)O)CC[C@]3(C)C(=CC[C@@H]4[C@@]5(C)C[C@@H](O)[C@H](O)C(C)(C)[C@@H]5CC[C@]43C)[C@@H]2[C@]1(C)O [Tormentic acid],-9.7,–
C1CCN2C[C@H]3C[C@H](CN4CCCC[C@@H]34)[C@H]2C1 [(+)-Sparteine],–,6
OC[C@H]1O[C@@](CO)(OC[C@@]2(OC[C@@]3(O[C@H]4O[C@H](CO)[C@@H](O)[C@H](O)[C@H]4O)O[C@H](CO)[C@@H](O)[C@@H]3O)O[C@H](CO)[C@@H](O)[C@@H]2O)[C@@H](O)[C@@H]1O [Nystose],-0.8,–
COC(=O)/C=C/c1ccc(O)c(OC)c1 [Ferulic acid methyl ester],-0.4,–
CCCCCCCCCCCCCCCCC(=O)O [Heptadecanoic acid],-0.6,–
CCCCCCCCCC(C)=O [2-Undecanone],-0.6,–
N=C(N)NCCC[C@H](N)C(=O)O [L-Arginine],–,2.7
C[S+]([O-])CCCC/C(=N\OS(=O)(=O)O)S[C@@H]1O[C@H](CO)[C@@H](O)[C@H](O)[C@H]1O (stereo partly shown) [Glucoraphanin],-2.3,–
Cc1ccc(C=O)o1 [5-Methylfurfural],-2.9,–
C=C[C@@H]1CNC(=S)O1 [Epigoitrin],-1.3,–
CC(=O)O[C@H]1C[C@@]2(C)[C@@H](C[C@@H](O)[C@H]3[C@@]4(C)CC[C@@H](O)[C@@H](C)[C@@H]4CC[C@@]32C)/C1=C(\CCC=C(C)C)C(=O)O [Fusidic acid (sodium salt)],1.2,–
COc1ccc2c(C)c3[n+](cc2c1OC)CCc1cc2c(cc1-3)OCO2 [13-Methylberberine (chloride)],-8.6,–
CCCCCCCCCCCCCCCCCCCCCCC(=O)O [Tricosanoic acid],-0.3,–
CC(=O)O[C@H]1C[C@H]2CC[C@]1(C)C2(C)C [Bornyl acetate],-0.3,–
CCCCCCCCCCCCCCCCCCCCCCCC(=O)OC [Methyl tetracosanoate],0,–
COc1cc2c(cc1O)C[C@H]1c3cc(O)c(OC)cc3CC[N+]1(C)C2 (stereo partly shown) [Phellodendrine (chloride)],0,–
COc1cc(/C=C/c2ccc(OC)c(OC)c2)oc(=O)c1 [11-Methoxyyangonin],1,–
C=C1C(=O)O[C@H]2C1CC[C@@](C)(O)C13C=CC(C)(C21)C1(C3)C(=O)O[C@@H]2C3C(C)=CCC3[C@](C)(O)[C@H](OC(C)=O)CC21 (stereo partly shown) [Handelin],6.6,–
C=C(C)[C@@H]1CC=C(C=O)CC1 [L-Perillaldehyde],0.1,–

# Three records drawn at random from the list so far:
SMILES,OC43 Inhibition rate [%],"OC43 Inhibition rate (OC43 Inhibition rate, 24 h) [%]"
COC(=O)c1ccco1 [Methyl 2-furoate],-0.3,–
C=C[C@@H]1CNC(=S)O1 [Epigoitrin],-1.3,–
Oc1ccc([C@H]2Oc3cc(O)cc(O)c3C[C@@H]2O)cc1 [(+)-Afzelechin],4.5,–
